Laboratory results as given in the supplement of paper PMC11348887.
Counter-ions that a name gives are not always drawn. Some of the results follow. Most values lie at the level of the controls, where differences are scatter.

What was measured:
Settings in all cases: 5 µM; treatment: days 7-14 after plating, readout day 21
[1] = system: hPSC-derived cortical neurons (WA09); assay: nucleus area z-score vs screen plate; higher = larger nuclei (more mature)
[2] = system: hPSC-derived cortical neurons (WA09); assay: total neurite length per nucleus (MAP2) z-score; higher = more neurite growth
[3] = system: hPSC-derived cortical neurons (WA09); assay: nucleus roundness z-score vs screen plate; higher = rounder nuclei (more mature)
[4] = system: hPSC-derived cortical neurons (WA09); assay: KCl-induced FOS+/EGR-1+ double-positive nuclei fraction z-score (KCl minus unstimulated); higher = stronger activity-induced IEG response

Row | SMILES | nucleus area z-score [1] | total neurite length per nucleus (z-score) [2] | nucleus roundness z-score [3] | KCl-induced FOS+/EGR-1+ double-positive nuclei fraction z-score [4]
1 | c1ccc(NCc2ccc(CNc3ccccn3)cc2)nc1 | -1.04 | 0.555 | 0.114 | 0.146
2 | COc1ccc(S(=O)(=O)Nc2cccnc2Nc2ccc(O)cc2)cc1 | -4.89 | -1.82 | -1.61 | -2.32
3 | C=CC[C@@H]1/C=C(\C)C[C@H](C)C[C@H](OC)[C@H]2O[C@@](O)(C(=O)C(=O)N3CCCC[C@H]3C(=O)O[C@H](/C(C)=C/[C@@H]3CC[C@@H](O)[C@H](OC)C3)[C@H](C)[C@@H](O)CC1=O)[C@H](C)C[C@@H]2OC [Tacrolimus (FK506)] | -0.583 | 0.066 | -0.318 | 0.295
4 | CN(C)[C@@H]1C(O)=C(C(N)=O)C(=O)[C@@]2(O)C(O)=C3C(=O)c4c(O)ccc(Cl)c4[C@@](C)(O)[C@H]3C[C@@H]12 [Chlortetracycline HCl] | -0.212 | 1.19 | -0.0448 | 0.532
5 | NC(=O)CCCSc1nc(N)nc(-c2c(Cl)cc3c4c(cccc24)COC3)n1 | -10.7 | -5.65 | -3.07 | -0.747
6 | Oc1ccc(OCc2ccccc2)cc1 [Monobenzone] | -0.433 | 1.25 | 1.09 | 0.07
7 | O=C1c2c(O)cc(O)cc2O[C@H](c2cc(O)c(O)c(O)c2)[C@H]1O [Dihydromyricetin] | -1.69 | -0.0691 | 1.01 | 1.66
8 | CC1(C)S[C@@H]2[C@H](NC(=O)[C@H](NC(=O)N3CCN(S(C)(=O)=O)C3=O)c3ccccc3)C(=O)N2[C@H]1C(=O)O [Mezlocillin Sodium] | 0.0491 | -0.00277 | 0.0348 | 0.0804
9 | C[C@@H]1O[C@@H](O[C@H]2[C@H](Oc3cc(O)c4c(c3)O[C@H](c3ccc(O)cc3)CC4=O)O[C@H](CO)[C@@H](O)[C@@H]2O)[C@H](O)[C@H](O)[C@H]1O [Naringin] | 2.81 | -1.82 | -1.76 | -0.506
10 | Cc1coc2c1C(=O)C(=O)c1c-2ccc2c(C)cccc12 [Tanshinone I] | -0.69 | -2.51 | -2.09 | 1.29
11 | Cc1ccc(NC(=O)c2ccc(CN3CCN(C)CC3)cc2)cc1Nc1nc(-c2cccnc2)cs1 [Masitinib (AB1010)] | 0.221 | 0.238 | -0.497 | 0.218
12 | O=C(O[C@@H]1Cc2c(O)cc(O)cc2O[C@@H]1c1cc(O)c(O)c(O)c1)c1cc(O)c(O)c(O)c1 [(-)-Epigallocatechin Gallate] | 1.26 | -1.03 | 0.574 | 0.879
13 | NCC(=O)Nc1ccc(-n2nc(C(F)(F)F)cc2-c2ccc3c(ccc4ccccc43)c2)cc1 | -1.54 | -0.907 | -1.26 | -0.0149
14 | Cc1cc(F)c(Nc2ncnc3cc(OCc4ccccc4)ccc23)cc1O | 0.829 | -0.0794 | 0.563 | 0.0431
15 | CN(C)C(=S)NN=C(c1ccccn1)c1ccccn1 | -17.5 | -5.96 | -5.31 | -1.46
16 | Cc1cc(CS(=O)(=O)c2ccccc2)cc(OCc2ccc(CN3CCC[C@@H]3CO)cc2)c1 | -0.0931 | -1.96 | -1.16 | 0.932
17 | NS(=O)(=O)NCCNc1nonc1/C(=N/O)Nc1ccc(F)c(Br)c1 | 1.12 | -0.442 | 0.371 | 0.27
18 | Nc1cccc(S(=O)(=O)N2CCCN(S(=O)(=O)c3ccc4c(c3)OCCO4)CC2)c1 | -2.22 | -2.16 | -2.21 | 1.06
19 | Cc1ncc([N+](=O)[O-])n1CC(O)CCl (centres undefined) [Ornidazole] | 0.181 | 0.424 | 0.159 | 1.33
20 | Cc1nn(C)c2c1C(c1ccc(C(F)(F)F)cc1)C(C#N)=C(N)O2 (centres undefined) | 0.95 | -0.0626 | 0.487 | 0.216
21 | Cc1ccc(C(=O)NCCCCCC(=O)Nc2ccccc2N)cc1 | 0.169 | 0.656 | 0.63 | -0.122
22 | CCC(=O)Nc1cccc(Oc2nc(Nc3ccc(N4CCN(C)CC4)cc3OC)ncc2Cl)c1 | 0.916 | -0.944 | -0.755 | -0.728
23 | COc1ccc(Cl)cc1C(=O)NCCc1ccc(S(=O)(=O)NC(=O)NC2CCCCC2)cc1 [Glyburide] | 0.636 | 0.0455 | 0.46 | -0.205
24 | O=C([C@@H](Cc1cccc(C(F)(F)F)c1)NS(=O)(=O)c1cc(F)c2c(c1)CCNC2)N1CCCC1 | 1.45 | 0.493 | 1.31 | 1.47
25 | [I-].[K+] [Potassium Iodide] | -0.578 | 0.000459 | -0.12 | -0.0743
26 | OC(Cn1cncn1)(Cn1cncn1)c1ccc(F)cc1F [Fluconazole] | 0.515 | 0.237 | -0.447 | 0.414

8 of these compounds, set out differently.
Row	SMILES	nucleus area z-score [1]	total neurite length per nucleus (z-score) [2]	nucleus roundness z-score [3]	KCl-induced FOS+/EGR-1+ double-positive nuclei fraction z-score [4]
14	Cc1cc(F)c(Nc2ncnc3cc(OCc4ccccc4)ccc23)cc1O	0.829	-0.0794	0.563	0.0431
15	CN(C)C(=S)NN=C(c1ccccn1)c1ccccn1	-17.5	-5.96	-5.31	-1.46
16	Cc1cc(CS(=O)(=O)c2ccccc2)cc(OCc2ccc(CN3CCC[C@@H]3CO)cc2)c1	-0.0931	-1.96	-1.16	0.932
17	NS(=O)(=O)NCCNc1nonc1/C(=N/O)Nc1ccc(F)c(Br)c1	1.12	-0.442	0.371	0.27
18	Nc1cccc(S(=O)(=O)N2CCCN(S(=O)(=O)c3ccc4c(c3)OCCO4)CC2)c1	-2.22	-2.16	-2.21	1.06
19	Cc1ncc([N+](=O)[O-])n1CC(O)CCl (centres undefined) [Ornidazole]	0.181	0.424	0.159	1.33
20	Cc1nn(C)c2c1C(c1ccc(C(F)(F)F)cc1)C(C#N)=C(N)O2 (centres undefined)	0.95	-0.0626	0.487	0.216
21	Cc1ccc(C(=O)NCCCCCC(=O)Nc2ccccc2N)cc1	0.169	0.656	0.63	-0.122
